In the experiment the test system is MX-1 breast xenograft, nude mice, tumor weight T/C. In words: NCI In Vivo Anticancer Drug Screen. Data for tumor model Human Mammary Carcinoma MX-1 Xenograft (intrarenal inoculation) in NU/NU Swiss (nude) mice. The following applies: T/C endpoint: mean tumor weight change, higher T/C = larger tumour; for T/C: evaluated on day 11. As for the experimental part:
The antitumor activity of compounds was measured in mice bearing transplantable tumors. Survival or tumor size were measured and the results are expressed as the measurement made in the treated group (T) divided by the measurement made in the vehicle treated control group (C). The tumor model used in this assay is Human Mammary Carcinoma MX-1 Xenograft (intrarenal inoculation) in NU/NU Swiss (nude) mice

Where [1] appears, read: dose: 75.0 mg/kg/injection, schedule: Q04DX003 (sc), vehicle: water.
Setting [2] is: dose: 150.0 mg/kg/injection, schedule: Q04DX003 (sc), vehicle: water.
Where [3] appears, read: dose: 12.5 mg/kg/injection, schedule: Q01DX010 (sc), vehicle: saline with Tween-80.
Setting [4] is: dose: 100.0 mg/kg/injection, schedule: Q04DX003 (sc), vehicle: Klucel (hydroxypropylcellulose) (HPC).

The list is a part of this screen's results and no random one: it covers a few groups of compounds. Other doses and runs of a compound may be missing. T/C is the treated group as % of the vehicle group. Schedules are NCI's codes, taken here to give the interval after Q, in days (D) or hours (H), and the number of doses after X. Some values lie below zero, which means that the treated tumours became smaller. Some entries were tested several times; the values are given in rising order. Some T/C values are followed by the survivors on the day toxicity was checked; without a count or a note in brackets, all were alive then. Some entries give survivors of the animals treated and no T/C: the source holds a T/C of zero for them, seemingly a mark for toxic or unscored doses. Survivors were counted at the toxicity check; its day is shown where the source gives one, and later deaths do not show.

Consider `C[N+](CCCl)(CCCl)Cc1ccc([N+](=O)[O-])cc1`, for which the T/C was 53 and 105 % of control (dose: 12.5 mg/kg/injection, schedule: Q04DX003 (sc), vehicle: saline); 32, 51, 60 % of control (dose: 25.0 mg/kg/injection, schedule: Q04DX003 (sc), vehicle: saline); 3 % of control (dose: 50.0 mg/kg/injection, schedule: Q04DX003 (sc), vehicle: saline).
Take `CC1=CC(=O)C(N(CCCl)CCCl)=CC1=O`: the T/C is 1 % of control (dose: 0.75 mg/kg/injection, schedule: Q01DX010 (sc), vehicle: Klucel (hydroxypropylcellulose) (HPC)); -69 [2 of 2 alive on day 11] and -52 % of control (dose: 1.5 mg/kg/injection, schedule: Q01DX010 (sc), vehicle: Klucel (hydroxypropylcellulose) (HPC)); -89 % of control (dose: 3.0 mg/kg/injection, schedule: Q01DX010 (sc), vehicle: Klucel (hydroxypropylcellulose) (HPC)).
Consider `Cc1ccc(N(CCBr)CCBr)cc1`, for which the T/C (dose: 18.75 mg/kg/injection, schedule: Q04DX003 (sc), vehicle: Klucel (hydroxypropylcellulose) (HPC)) was 2 and 41 % of control; the T/C (dose: 37.5 mg/kg/injection, schedule: Q04DX003 (sc), vehicle: Klucel (hydroxypropylcellulose) (HPC)) is 2 [5 of 6 alive on day 11] and 12 % of control; the T/C (dose: 75.0 mg/kg/injection, schedule: Q04DX003 (sc), vehicle: Klucel (hydroxypropylcellulose) (HPC)) was -50 and 12 % of control [2 of 2 alive on day 11]; the T/C (dose: 150.0 mg/kg/injection, schedule: Q04DX003 (sc), vehicle: Klucel (hydroxypropylcellulose) (HPC)) was -100 and 9 % of control [4 of 6 alive on day 11].
As for `NC1CCCCC1.NP(=O)(O)N(CCCl)CCCl`, the T/C (dose: 18.75 mg/kg/injection, schedule: Q04DX003 (sc), vehicle: water) was 115 % of control; the T/C (dose: 37.5 mg/kg/injection, schedule: Q04DX003 (sc), vehicle: water) is 41, 72, 85 % of control; the T/C under setting [1] is -21 [4 of 6 alive on day 11], 9, 90 % of control; the T/C under setting [2] is -91 [4 of 6 alive on day 11], 1 [5 of 6 alive on day 11], 49 % of control. Besides, the survivor count was 0 of 6 on day 11 under setting [1]; 0 of 6 on day 11 under setting [2]; 0 of 6 on day 11 (dose: 300.0 mg/kg/injection, schedule: Q04DX003 (sc), vehicle: water); 0 of 6 on day 11 (dose: 600.0 mg/kg/injection, schedule: Q04DX003 (sc), vehicle: water).
On to `ClCCN(CCCl)c1ccccc1`, for which the T/C runs as follows: (dose: 3.13 mg/kg/injection, schedule: Q01DX010 (sc), vehicle: saline with Tween-80) 1 and 21 % of control; (dose: 6.25 mg/kg/injection, schedule: Q01DX010 (sc), vehicle: saline with Tween-80) -49 and -16 % of control; under setting [3], -92 % of control; (dose: 50.0 mg/kg/injection, schedule: Q04DX003 (sc), vehicle: Klucel (hydroxypropylcellulose) (HPC)) -100 [2 of 3 alive on day 11] and -86 % of control; under setting [4], -65 % of control [4 of 6 alive on day 11]. Moreover, the survivor count was 1 of 3 on day 11 under setting [3]; 0 of 3 on day 11 (dose: 25.0 mg/kg/injection, schedule: Q01DX010 (sc), vehicle: saline with Tween-80); 0 of 3 on day 11 under setting [4]; 0 of 3 on day 11 and 0 of 6 on day 11 (dose: 200.0 mg/kg/injection, schedule: Q04DX003 (sc), vehicle: Klucel (hydroxypropylcellulose) (HPC)); 0 of 3 on day 11 and 0 of 6 on day 11 (dose: 400.0 mg/kg/injection, schedule: Q04DX003 (sc), vehicle: Klucel (hydroxypropylcellulose) (HPC)).
For `O=NN(CCSCCCl)C(=O)NC1CCCCC1`, the T/C is, setting by setting: (dose: 300.0 mg/kg/injection, schedule: Q04DX003 (sc), vehicle: saline with Tween-80) -100 and 28 % of control; (dose: 600.0 mg/kg/injection, schedule: Q04DX003 (sc), vehicle: saline with Tween-80) 7 % of control.

The values above are taken from PubChem BioAssay AID296 (DTP/NCI, 2004).
